For one sequence, binding signal results are on record in PMC5996148.

Several values for one entry are separate records, joined by “and”; a condition that tells them apart may be missing. Equal entries are not always repeated. This is one part of the list. For some assays here: Construct or isoform of the protein are uncertain.

Among the test systems are Aprataxin (human); Arfaptin-1 (human); Ataxin-3 (human); BAG2 (human); BBS7 (human); BCL2A1 (human); BCL2L11 (human); BCL2L13 (human); BHMT (human); BHMT2 (human); BID (human).
Holding throughout (experiment): protein microarray (ProtoArray v5.0), streptavidin-Alexa Fluor 647
Conditions in all cases: 3'-biotin; 20 mM Tris (pH 7.5), 5 mM MgCl2, 100 mM KCl, 0.1% Tween-20, A/T-rich and random oligonucleotide blockers; temperature not stated; high values mean tight binding

Experiment [1] has as its system Annexin-2 receptor (human).
The subject of experiment [2] is Apolipoprotein A-IV (human).
The test system of experiment [3] is Apolipoprotein L2 (human).
For experiment [4], the system named is Armadillo repeat-containing protein 6 (human).
In experiment [5] the test system is Aromatic-L-amino-acid decarboxylase (human).
The test system of experiment [6] is Autophagy-related protein 3 (human).
Another experiment addresses T1, BATF2 (UniProt Q8N1L9).
T1 sequence: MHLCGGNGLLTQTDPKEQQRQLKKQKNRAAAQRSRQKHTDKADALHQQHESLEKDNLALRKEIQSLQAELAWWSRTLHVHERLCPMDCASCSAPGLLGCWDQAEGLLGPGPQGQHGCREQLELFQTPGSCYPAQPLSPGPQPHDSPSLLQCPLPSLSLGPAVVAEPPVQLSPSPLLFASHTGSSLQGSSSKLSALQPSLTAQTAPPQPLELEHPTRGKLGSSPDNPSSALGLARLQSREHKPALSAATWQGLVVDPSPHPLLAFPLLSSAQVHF

The target of another experiment is BCKDK (UniProt O14874).
The target in a further experiment is T2, BCL10 (UniProt O95999).
T2 sequence: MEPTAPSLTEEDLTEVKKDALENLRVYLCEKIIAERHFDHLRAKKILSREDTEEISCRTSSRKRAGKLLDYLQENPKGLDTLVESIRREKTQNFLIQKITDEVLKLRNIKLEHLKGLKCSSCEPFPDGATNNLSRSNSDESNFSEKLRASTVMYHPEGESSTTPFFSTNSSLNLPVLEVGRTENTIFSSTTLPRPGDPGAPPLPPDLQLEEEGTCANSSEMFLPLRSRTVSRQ

For the sequence “GGTGACAGGGGTATGGGGAGGGG [G4-2 biotinylated (Ct1)]”, the binding signal in experiment [1] is -0.391 z-score and -0.36 z-score; in experiment [2], -0.394 z-score; in [3], -0.388 z-score; in the experiment with Aprataxin (human), 3.37 z-score; in the experiment with Arfaptin-1 (human), -0.4 z-score; in [4], -0.386 z-score. In addition, the binding signal in experiment [5] was -0.391 z-score; in the experiment on Ataxin-3 (human), -0.394 z-score; in [6] it was -0.4 z-score; in the experiment with BAG2 (human), -0.371 z-score; with BATF2 it was -0.388 z-score; in the experiment with BBS7 (human), -0.383 z-score. The binding signal is -0.369 z-score with BCKDK; -0.362 z-score with BCL10; -0.391 z-score with BCL2A1 (human); -0.406 z-score with BCL2L11 (human); -0.398 z-score in the experiment on BCL2L13 (human); -0.374 z-score in the experiment with BHMT (human). Also, the binding signal in the experiment on BHMT2 (human) is -0.376 z-score; with BID (human) it was -0.386 z-score and -0.391 z-score.
